# Publication doi:10.1101/435867
# By UniProt entry, the sequences of proteins in these tests, tags left out. Residues count along the entry.
# UniProt Q16620, residues 32-822: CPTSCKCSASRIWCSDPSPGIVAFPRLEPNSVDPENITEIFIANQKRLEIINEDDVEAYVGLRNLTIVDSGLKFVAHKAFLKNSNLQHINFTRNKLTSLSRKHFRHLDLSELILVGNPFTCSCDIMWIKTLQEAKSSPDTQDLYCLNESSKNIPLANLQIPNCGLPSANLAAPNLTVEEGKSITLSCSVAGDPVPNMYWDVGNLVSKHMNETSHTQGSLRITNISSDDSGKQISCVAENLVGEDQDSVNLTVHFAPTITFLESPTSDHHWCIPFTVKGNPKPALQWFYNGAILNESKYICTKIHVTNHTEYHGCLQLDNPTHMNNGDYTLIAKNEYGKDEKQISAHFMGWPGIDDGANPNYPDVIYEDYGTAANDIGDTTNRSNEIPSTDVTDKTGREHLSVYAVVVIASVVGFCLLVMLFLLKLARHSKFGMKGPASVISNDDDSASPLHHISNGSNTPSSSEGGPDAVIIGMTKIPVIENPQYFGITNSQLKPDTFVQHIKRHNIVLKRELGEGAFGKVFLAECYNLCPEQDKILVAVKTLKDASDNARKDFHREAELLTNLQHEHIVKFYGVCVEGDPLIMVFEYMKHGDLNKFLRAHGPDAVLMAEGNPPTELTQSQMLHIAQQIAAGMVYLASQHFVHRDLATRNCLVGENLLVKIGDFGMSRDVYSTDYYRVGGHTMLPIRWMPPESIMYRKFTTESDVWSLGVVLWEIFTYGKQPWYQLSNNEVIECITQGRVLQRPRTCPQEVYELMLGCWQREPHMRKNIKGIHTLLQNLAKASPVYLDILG
# Results are given in words; binding and its absence hold for the method and conditions named. In cells and extracts the contact can be indirect. Some results given as binding are weak or reduced against the parent protein; the word gives no strength.
# Target: TrkB (UniProt Q16620)
# Assay: pull-down
substance,measurement,value
TrkB (from UniProt Q16620 32-822) (receptor),binding,binds
